For at least one entry, the source does not settle the construct or the ends of the probe.

The data set relates to ZmRL6 (1R-MYB, MYB-related) (Zea mays). Nature of the data set: EMSA. The note with it: unlabeled competitor reduced binding; EMSA: 20 ng protein, 5 ng biotin probe in 20 µl; 10 mM Tris pH 7.5, 50 mM KCl, 1 mM DTT, 2.5% glycerol, 5 mM MgCl2, 0.05 mg/ml poly(dI-dC), 0.05% NP-40; 25 °C, 20 min; protein translated in vitro; protein details: HaloTag (pFN19K, N-terminal, HaloTag-ZmRL6); label: biotin. (In general: Mobility shift assays separate free from complexed probe on a gel.)
In the case of “CGTTACCAAACTACCTAATTCCTTACCAAAC (double strand) [TTACCAAAC probe]”, the binding result is “binds”.
To “TGCAACGGTCTTCACCAACCCAACGGTCCA (double strand) [AACGGT (ACCGTT) probe]” belongs “binds”; to “TTCGACAGCCCGAGAATCAG (double strand) [AGCCCGAG probe]”, “binds”.

These data come from paper PMC10654321.
